One substance from article PMC8585765, “An OsKala3, R2R3 MYB TF, Is a Common Key Player for Black Rice Pericarp as Main Partner of an OsKala4, bHLH TF” (Frontiers in Plant Science, 2021) can be followed below.

This test concerns the target OsKala3 (rice (Oryza sativa)) (UniProt O23891). As to the kind of experiment: two-hybrid; full-length ORFs each in pGBKT7 (GAL4 BD) and pGADT7 (GAL4 AD), introduced in pairs into yeast MaV203; SD lacking Trp, Leu and His with 10 mM 3-AT; 2 days in the dark at 30°C.

No constants are given. Whether binding was seen depends on the method and setting. Binding can be weak; no strength is given.

OsKala4 (from UniProt Q948Y2): the binding entry is “binds”.
